The supplement of paper PMC10849652
This is one part of the list.

By UniProt entry, the sequences of proteins in these tests, tags left out. Where a name states a change or a piece, a line headed by the entry shows the natural chain unless it says otherwise.
UniProt Q9GZM5: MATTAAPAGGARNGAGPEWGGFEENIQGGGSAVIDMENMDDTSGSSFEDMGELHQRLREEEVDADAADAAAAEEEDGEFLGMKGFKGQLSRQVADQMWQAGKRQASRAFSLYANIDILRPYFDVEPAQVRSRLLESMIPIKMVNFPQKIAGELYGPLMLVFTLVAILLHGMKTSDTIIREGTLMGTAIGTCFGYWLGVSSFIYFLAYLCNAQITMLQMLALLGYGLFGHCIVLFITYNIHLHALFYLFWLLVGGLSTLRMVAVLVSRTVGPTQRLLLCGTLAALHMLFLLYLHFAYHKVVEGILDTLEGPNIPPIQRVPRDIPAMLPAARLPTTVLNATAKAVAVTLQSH
UniProt P63104: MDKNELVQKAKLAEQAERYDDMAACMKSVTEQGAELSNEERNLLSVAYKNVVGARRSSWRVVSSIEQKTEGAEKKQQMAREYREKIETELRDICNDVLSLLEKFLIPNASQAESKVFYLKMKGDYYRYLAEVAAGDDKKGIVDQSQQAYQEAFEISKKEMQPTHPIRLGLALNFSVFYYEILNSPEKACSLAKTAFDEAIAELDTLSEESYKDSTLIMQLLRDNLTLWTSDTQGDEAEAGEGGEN
UniProt P67809, whole entry, looked up: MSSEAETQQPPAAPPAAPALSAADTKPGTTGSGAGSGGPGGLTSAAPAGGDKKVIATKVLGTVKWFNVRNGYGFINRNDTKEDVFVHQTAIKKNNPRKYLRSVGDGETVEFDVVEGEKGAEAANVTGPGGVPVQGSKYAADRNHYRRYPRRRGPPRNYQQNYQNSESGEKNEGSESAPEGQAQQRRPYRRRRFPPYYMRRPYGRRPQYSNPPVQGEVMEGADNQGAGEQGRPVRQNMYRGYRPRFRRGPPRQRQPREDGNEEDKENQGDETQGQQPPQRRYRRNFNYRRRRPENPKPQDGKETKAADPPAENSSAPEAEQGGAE
UniProt Q86T24: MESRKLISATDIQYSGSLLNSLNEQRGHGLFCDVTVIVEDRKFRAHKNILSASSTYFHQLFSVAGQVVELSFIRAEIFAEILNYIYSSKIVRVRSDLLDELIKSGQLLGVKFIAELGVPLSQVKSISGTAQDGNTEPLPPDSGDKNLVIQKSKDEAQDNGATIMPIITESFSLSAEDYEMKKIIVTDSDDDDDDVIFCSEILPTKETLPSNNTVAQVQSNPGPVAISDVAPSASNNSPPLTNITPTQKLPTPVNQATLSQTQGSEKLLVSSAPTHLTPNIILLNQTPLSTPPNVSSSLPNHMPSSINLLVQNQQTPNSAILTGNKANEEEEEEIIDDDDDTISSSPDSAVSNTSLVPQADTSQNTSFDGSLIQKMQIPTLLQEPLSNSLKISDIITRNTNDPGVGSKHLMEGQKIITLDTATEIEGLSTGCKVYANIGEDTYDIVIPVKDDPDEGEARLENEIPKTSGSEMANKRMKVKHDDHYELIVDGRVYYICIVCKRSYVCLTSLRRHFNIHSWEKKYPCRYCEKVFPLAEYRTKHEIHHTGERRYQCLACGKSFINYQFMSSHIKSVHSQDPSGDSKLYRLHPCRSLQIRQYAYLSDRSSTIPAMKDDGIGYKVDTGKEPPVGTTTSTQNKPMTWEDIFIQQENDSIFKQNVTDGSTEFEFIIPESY
UniProt Q9Y2Z4: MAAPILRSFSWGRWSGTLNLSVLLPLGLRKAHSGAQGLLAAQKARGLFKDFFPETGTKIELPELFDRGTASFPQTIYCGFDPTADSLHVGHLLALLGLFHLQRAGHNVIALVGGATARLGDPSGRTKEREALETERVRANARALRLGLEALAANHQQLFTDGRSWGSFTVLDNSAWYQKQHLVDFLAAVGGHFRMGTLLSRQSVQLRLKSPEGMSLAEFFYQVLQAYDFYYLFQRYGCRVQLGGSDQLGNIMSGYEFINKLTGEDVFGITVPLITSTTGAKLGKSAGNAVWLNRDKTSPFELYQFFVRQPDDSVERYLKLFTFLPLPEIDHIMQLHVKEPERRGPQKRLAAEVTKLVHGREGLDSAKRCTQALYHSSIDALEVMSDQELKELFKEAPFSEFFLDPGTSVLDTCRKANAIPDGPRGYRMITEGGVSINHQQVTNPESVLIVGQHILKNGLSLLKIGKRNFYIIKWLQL
UniProt P12956: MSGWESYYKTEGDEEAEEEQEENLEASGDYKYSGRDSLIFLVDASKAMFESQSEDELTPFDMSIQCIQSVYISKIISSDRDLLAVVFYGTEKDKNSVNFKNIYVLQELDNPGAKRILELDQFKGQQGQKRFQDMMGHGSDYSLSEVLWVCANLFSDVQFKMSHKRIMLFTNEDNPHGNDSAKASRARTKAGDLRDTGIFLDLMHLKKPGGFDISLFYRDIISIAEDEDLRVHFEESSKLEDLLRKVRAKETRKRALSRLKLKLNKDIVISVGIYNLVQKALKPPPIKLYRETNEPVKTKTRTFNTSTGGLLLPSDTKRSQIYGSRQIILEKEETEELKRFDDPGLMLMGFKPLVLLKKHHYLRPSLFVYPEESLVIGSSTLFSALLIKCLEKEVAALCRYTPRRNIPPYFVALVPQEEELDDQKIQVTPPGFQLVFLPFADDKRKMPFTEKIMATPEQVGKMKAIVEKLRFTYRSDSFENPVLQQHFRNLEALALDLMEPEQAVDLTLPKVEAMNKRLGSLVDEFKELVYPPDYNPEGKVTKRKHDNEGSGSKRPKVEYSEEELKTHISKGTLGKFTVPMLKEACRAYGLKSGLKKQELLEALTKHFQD
UniProt O75152: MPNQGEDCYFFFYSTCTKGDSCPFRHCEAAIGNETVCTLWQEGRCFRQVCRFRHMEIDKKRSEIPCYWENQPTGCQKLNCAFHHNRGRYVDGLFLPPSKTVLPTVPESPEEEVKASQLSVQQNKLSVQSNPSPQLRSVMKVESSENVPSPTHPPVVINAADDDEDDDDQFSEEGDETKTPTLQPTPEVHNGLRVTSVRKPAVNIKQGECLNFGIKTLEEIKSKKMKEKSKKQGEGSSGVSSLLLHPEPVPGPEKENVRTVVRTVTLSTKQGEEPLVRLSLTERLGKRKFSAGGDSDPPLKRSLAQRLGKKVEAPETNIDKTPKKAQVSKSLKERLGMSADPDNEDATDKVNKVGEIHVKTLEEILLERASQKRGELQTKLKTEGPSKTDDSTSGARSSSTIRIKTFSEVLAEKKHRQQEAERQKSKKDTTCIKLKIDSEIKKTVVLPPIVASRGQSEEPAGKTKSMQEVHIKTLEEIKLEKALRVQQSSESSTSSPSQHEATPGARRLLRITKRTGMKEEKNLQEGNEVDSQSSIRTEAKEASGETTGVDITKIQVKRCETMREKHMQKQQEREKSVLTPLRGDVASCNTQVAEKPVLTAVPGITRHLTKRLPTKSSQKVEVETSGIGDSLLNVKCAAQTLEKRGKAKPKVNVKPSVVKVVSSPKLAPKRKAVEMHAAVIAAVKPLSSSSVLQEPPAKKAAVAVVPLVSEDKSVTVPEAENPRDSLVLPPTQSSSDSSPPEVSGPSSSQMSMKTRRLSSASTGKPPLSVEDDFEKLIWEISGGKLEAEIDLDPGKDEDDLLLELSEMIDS
UniProt O96006: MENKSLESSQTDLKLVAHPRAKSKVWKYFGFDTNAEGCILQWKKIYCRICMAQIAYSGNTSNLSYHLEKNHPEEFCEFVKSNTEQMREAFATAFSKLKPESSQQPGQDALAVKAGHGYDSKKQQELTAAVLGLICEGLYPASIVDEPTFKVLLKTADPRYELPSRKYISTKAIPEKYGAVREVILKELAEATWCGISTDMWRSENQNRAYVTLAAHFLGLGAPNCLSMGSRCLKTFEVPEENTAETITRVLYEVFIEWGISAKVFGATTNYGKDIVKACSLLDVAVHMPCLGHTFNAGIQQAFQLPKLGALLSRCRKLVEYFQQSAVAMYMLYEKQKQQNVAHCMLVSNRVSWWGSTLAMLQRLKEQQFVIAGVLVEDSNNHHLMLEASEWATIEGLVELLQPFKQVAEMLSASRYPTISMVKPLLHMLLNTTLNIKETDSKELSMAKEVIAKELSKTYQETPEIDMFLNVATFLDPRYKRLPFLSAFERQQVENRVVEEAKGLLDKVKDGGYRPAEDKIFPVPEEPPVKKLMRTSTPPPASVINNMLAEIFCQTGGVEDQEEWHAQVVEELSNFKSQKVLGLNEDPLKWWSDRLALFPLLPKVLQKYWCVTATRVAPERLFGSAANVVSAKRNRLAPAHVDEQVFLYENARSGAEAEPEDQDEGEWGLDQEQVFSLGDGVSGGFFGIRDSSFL
UniProt O95159: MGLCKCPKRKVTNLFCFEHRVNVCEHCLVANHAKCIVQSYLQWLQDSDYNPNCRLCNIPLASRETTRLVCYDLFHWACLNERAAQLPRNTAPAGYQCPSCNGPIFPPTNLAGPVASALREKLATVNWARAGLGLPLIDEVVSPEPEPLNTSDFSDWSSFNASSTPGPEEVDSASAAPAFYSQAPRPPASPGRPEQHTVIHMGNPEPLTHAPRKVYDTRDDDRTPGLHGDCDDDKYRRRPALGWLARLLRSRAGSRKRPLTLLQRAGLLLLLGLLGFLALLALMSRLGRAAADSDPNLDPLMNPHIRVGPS
UniProt P25490, whole entry, looked up: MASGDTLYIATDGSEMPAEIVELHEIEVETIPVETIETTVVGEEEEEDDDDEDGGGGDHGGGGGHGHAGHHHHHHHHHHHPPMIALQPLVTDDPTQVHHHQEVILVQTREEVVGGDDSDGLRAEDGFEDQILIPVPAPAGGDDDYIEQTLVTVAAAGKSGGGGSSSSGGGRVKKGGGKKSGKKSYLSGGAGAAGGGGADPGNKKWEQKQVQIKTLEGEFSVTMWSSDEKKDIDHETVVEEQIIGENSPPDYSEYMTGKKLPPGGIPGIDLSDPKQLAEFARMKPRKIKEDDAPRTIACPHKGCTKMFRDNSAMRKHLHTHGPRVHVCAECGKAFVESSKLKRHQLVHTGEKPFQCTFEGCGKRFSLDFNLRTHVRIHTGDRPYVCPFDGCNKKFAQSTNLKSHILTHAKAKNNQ
UniProt Q9C0E2: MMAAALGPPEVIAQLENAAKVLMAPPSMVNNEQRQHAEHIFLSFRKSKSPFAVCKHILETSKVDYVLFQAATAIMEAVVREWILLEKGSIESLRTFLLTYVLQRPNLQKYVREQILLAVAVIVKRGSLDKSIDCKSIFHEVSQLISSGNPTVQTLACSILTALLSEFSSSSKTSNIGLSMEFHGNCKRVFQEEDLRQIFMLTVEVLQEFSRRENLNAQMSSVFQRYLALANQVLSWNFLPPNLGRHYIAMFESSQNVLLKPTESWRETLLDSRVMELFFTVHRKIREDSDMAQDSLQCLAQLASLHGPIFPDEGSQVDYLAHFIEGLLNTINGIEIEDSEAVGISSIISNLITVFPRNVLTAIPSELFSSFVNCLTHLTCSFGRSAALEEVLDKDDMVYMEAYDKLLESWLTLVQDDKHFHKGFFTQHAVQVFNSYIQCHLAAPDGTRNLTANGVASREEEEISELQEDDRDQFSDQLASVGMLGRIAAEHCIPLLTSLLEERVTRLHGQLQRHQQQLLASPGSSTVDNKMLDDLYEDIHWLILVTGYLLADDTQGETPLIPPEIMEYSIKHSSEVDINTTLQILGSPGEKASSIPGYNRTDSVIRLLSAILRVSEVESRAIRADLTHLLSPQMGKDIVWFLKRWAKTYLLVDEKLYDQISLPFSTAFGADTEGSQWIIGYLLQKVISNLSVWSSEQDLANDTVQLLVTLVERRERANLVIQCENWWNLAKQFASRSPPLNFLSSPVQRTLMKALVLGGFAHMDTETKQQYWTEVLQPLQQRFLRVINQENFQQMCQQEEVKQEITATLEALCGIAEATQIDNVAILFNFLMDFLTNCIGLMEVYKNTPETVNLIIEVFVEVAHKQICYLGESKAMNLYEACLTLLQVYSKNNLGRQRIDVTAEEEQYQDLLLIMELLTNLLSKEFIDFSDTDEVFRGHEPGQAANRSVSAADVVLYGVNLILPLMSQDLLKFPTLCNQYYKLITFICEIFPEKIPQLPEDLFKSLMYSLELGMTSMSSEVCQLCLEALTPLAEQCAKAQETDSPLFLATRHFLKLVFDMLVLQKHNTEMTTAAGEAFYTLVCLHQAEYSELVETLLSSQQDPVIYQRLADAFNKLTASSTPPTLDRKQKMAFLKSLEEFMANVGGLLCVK
UniProt Q8N5A5: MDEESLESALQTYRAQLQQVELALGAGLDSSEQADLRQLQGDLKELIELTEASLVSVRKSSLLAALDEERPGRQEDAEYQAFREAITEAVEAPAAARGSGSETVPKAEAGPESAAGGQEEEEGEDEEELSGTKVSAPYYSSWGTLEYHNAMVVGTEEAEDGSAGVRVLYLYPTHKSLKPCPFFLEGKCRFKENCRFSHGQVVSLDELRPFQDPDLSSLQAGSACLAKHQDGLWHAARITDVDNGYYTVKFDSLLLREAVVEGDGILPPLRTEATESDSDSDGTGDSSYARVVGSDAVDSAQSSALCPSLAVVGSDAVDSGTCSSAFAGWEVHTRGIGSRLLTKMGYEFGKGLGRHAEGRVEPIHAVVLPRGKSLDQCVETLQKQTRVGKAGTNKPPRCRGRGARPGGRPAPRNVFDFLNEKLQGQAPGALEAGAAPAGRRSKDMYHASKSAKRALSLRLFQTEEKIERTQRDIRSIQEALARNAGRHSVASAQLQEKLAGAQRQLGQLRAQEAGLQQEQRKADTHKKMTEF

Experiments:
Test in all cases: log2 fold change, soluble protein after heating vs DMSO (PISA); higher = thermal stabilisation; K562 lysate, 10 uM; active = over 0.2 and 3.5 SD of the protein, either way, in both replicates (recomputed)
[1] = compound: CN1CC[C@H](c2c(O)cc(O)c3c(=O)cc(-c4ccccc4Cl)oc23)[C@H](O)C1 [alvocidib]
Procedure, shortened: (§1)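 K562 pellets were dounce-homogenised in PBS pH 7.4 containing 1 mM MgCl2, and the crude extract, at 1 mg/mL protein, was exposed to 10 μM compound for 30 min. Aliquots were heated for 3 min across 48°C-58°C, pooled, brought to 0.5% NP-40 at 4°C and spun at 21,000xg for 90 min, with the supernatant taken as soluble protein. TMTpro 16plex LC-MS/MS with equalised channel sums quantified that protein. Values are log-two fold changes in thermal stability relative to solvent controls, taken from duplicates.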

[2] = compound: CN1CCc2c(c3ccccc3n2Cc2ccc(C(=O)NO)cc2)C1 [Tubastatin A]
Procedure, shortened: as §1

[3] = compound: CNC(=O)C1=CC=CC=C1NC2=NC(=NC=C2Cl)NC3=C(C=C(C=C3)N4CCOCC4)OC
Procedure, shortened: as §1

[4] = compound: CNC(=O)c1ccc(Nc2ncc(C(F)(F)F)c(NCc3nccnc3N(C)S(C)(=O)=O)n2)cc1 [defactinib]
Procedure, shortened: as §1

[5] = compound: CNc1nc(-c2ccc3c(N)n[nH]c3c2)cc(N2C[C@@H](C(=O)NC3CCCCC3)CC[C@H]2C)n1
Procedure, shortened: as §1

[6] = compound: COC(=O)N[C@@H](C)CNc1nccc(-c2cn(C(C)C)nc2-c2cc(Cl)cc(NS(C)(=O)=O)c2F)n1 [encorafenib]
Procedure, shortened: as §1

[7] = compound: COC(=O)[C@H](CCSC)NC(=O)C1=C(C=C(C=C1)NC[C@H](CS)N)C2=CC=CC=C2
Procedure, shortened: as §1

[8] = compound: COc1cc(Nc2ncc3c(n2)-c2ccc(Cl)cc2C(c2c(F)cccc2OC)=NC3)ccc1C(=O)O [alisertib]
Procedure, shortened: as §1

[9] = compound: COc1cc2nc(-c3cc(F)ccc3O)nc(N[C@@H]3CNC[C@H]3C(C)(C)O)c2cc1OC
Procedure, shortened: as §1

[10] = compound: COc1cc2ncnc(Nc3ccc(F)c(Cl)c3)c2cc1OCCCN1CCOCC1 [gefitinib]
Procedure, shortened: as §1

[11] = compound: CS(=O)(=O)CCNCc1ccc(-c2ccc3ncnc(Nc4ccc(OCc5cccc(F)c5)c(Cl)c4)c3c2)o1 [lapatinib]
Procedure, shortened: as §1

[12] = compound: CS(=O)(=O)N1CCN(Cc2cc3nc(-c4cccc5[nH]ncc45)nc(N4CCOCC4)c3s2)CC1 [pictilisib]
Procedure, shortened: as §1

[13] = compound: C[C@@H](Oc1cc(-c2cnn(C3CCNCC3)c2)cnc1N)c1c(Cl)ccc(F)c1Cl [crizotinib]
Procedure, shortened: as §1

[14] = compound: C[C@H](C1=CC=C(C=C1)C(=O)NC2=C3C=CNC3=NC=C2)N
Procedure, shortened: as §1

[15] = compound: C[C@H](Nc1ncnc2nc[nH]c12)c1cc2cccc(Cl)c2c(=O)n1-c1ccccc1 [duvelisib]
Procedure, shortened: as §1

[16] = compound: Cc1cc(Nc2cc(CN3CCOCC3)c3nc(C)c(Cc4ccc(Cl)cc4F)n3n2)n[nH]1 [gandotinib]
Procedure, shortened: as §1

[17] = compound: Cc1cc(Nc2cc(N3CCN(C)CC3)nc(Sc3ccc(NC(=O)C4CC4)cc3)n2)n[nH]1 [tozasertib]
Procedure, shortened: as §1

[18] = compound: Cc1ccc(-n2nc(C(C)(C)C)cc2NC(=O)Nc2ccc(OCCN3CCOCC3)c3ccccc23)cc1 [doramapimod]
Procedure, shortened: as §1

[19] = compound: Cc1ccc(NC(=O)c2ccc(CN3CC[C@H](N(C)C)C3)c(C(F)(F)F)c2)cc1Nc1nccc(-c2cncnc2)n1 [bafetinib]
Procedure, shortened: as §1

[20] = compound: Cc1cccc(CC(=O)N2CCc3c2ccc(-c2cn(C)c4ncnc(N)c24)c3F)n1
Procedure, shortened: as §1

Measured: log2 fold change

YIPF3 (UniProt Q9GZM5)
inactive: [1] -0.023 | [2] 0.084 | [3] -0.008 | [4] 0.007 | [5] 0.021 | [6] 0.028 | [7] -0.071 | [8] 0.008 | [9] 0.007 | [10] 0.005 | [11] -0.021 | [12] -0.016 | [13] 0.038 | [14] -0.09 | [15] 0.033 | [16] 0.017 | [17] -0.002 | [18] -0.011 | [19] -0.034 | [20] 0.092

YWHAZ (UniProt P63104)
inactive: [1] -0.003 | [2] 0.012 | [3] -0.023 | [4] -0.011 | [5] -0.01 | [6] -0.025 | [7] -0.026 | [8] 0.004 | [9] -0.007 | [10] -0.013 | [11] 0.014 | [12] 0.035 | [13] 0.009 | [14] -0.013 | [15] 0.021 | [16] 0.01 | [17] -0.013 | [18] 0.022 | [19] 0.074 | [20] -0.009

ZCCHC8 (UniProt Q6NZY4)
inactive: [1] 0.012 | [2] -0.047 | [3] 0.017 | [4] 0 | [5] 0.024 | [6] 0.009 | [7] -0.037 | [8] -0.017 | [9] 0 | [10] -0.022 | [11] 0.009 | [12] 0.005 | [13] 0 | [14] 0.019 | [15] 0.018 | [16] 0.013 | [17] -0.029 | [18] -0.003 | [19] -0.009 | [20] -0.031

YBX1 (UniProt P67809)
inactive: [1] 0.069 | [2] 0.06 | [3] -0.022 | [4] 0.001 | [5] 0.017 | [6] -0.022 | [7] -0.031 | [8] -0.004 | [9] 0.012 | [10] -0.009 | [11] 0.004 | [12] 0.026 | [13] -0.012 | [14] 0.098 | [15] 0.001 | [16] -0.085 | [17] -0.05 | [18] -0.07 | [19] -0.004 | [20] -0.113

ZBTB33 (UniProt Q86T24)
inactive: [1] -0.028 | [2] -0.005 | [3] -0.178 | [4] -0.062 | [5] 0.119 | [6] 0.018 | [7] -0.004 | [8] -0.059 | [9] -0.307 | [10] 0.086 | [11] 0.047 | [12] 0.149 | [13] -0.111 | [14] -0.165 | [15] -0.041 | [16] 0.028 | [17] 0.048 | [18] 0.022 | [19] 0.046 | [20] 0.048

YWHAH (UniProt Q04917)
inactive: [1] 0.087 | [2] 0.052 | [3] -0.042 | [4] -0.032 | [5] -0.017 | [6] -0.045 | [7] 0 | [8] -0.049 | [9] 0.004 | [10] 0.002 | [11] -0.016 | [12] 0.044 | [13] 0.084 | [14] 0.21 | [15] -0.008 | [16] -0.079 | [17] 0 | [18] -0.028 | [19] 0.063 | [20] -0.094

YARS2 (UniProt Q9Y2Z4)
inactive: [1] -0.062 | [2] -0.074 | [3] 0.022 | [4] 0.029 | [5] 0.003 | [6] 0.088 | [7] -0.024 | [8] -0.06 | [9] 0.005 | [10] 0.028 | [11] 0.005 | [12] -0.002 | [13] -0.022 | [14] -0.05 | [15] -0.014 | [16] 0.028 | [17] -0.013 | [18] 0.016 | [19] 0.083 | [20] 0.01

XRCC6 (UniProt P12956)
inactive: [1] 0.003 | [2] 0.034 | [3] -0.014 | [4] -0.023 | [5] 0.006 | [6] -0.006 | [7] 0.011 | [8] 0.015 | [9] -0.007 | [10] 0.013 | [11] -0.017 | [12] 0.023 | [13] -0.024 | [14] -0.013 | [15] 0.002 | [16] -0.072 | [17] -0.019 | [18] -0.014 | [19] -0.016 | [20] 0.002

ZC3H11A (UniProt O75152)
inactive: [1] 0.098 | [2] -0.077 | [3] 0.076 | [4] -0.066 | [5] -0.023 | [6] 0.045 | [7] 0.078 | [8] 0.019 | [9] 0.09 | [10] 0.034 | [11] -0.09 | [12] -0.046 | [13] -0.071 | [14] 0.222 | [15] 0.013 | [16] -0.12 | [17] 0.016 | [18] 0.013 | [19] -0.113 | [20] -0.134

YBX3 (UniProt P16989)
inactive: [1] 0.018 | [2] 0.046 | [3] -0.003 | [4] -0.015 | [5] -0.009 | [6] -0.025 | [7] -0.035 | [8] 0.01 | [9] 0.005 | [10] 0 | [11] -0.023 | [12] 0.061 | [13] -0.005 | [14] -0.026 | [15] 0.03 | [16] 0.014 | [17] -0.004 | [18] -0.007 | [19] 0.053 | [20] -0.045

ZBED1 (UniProt O96006)
inactive: [1] 0.013 | [2] -0.129 | [3] 0.042 | [4] -0.039 | [5] 0.062 | [6] 0.048 | [7] -0.04 | [8] -0.014 | [9] -0.043 | [10] -0.014 | [11] 0.024 | [12] -0.031 | [13] -0.005 | [14] 0.016 | [15] 0.065 | [16] -0.019 | [17] 0.006 | [18] 0.004 | [19] 0.068 | [20] -0.013

XPO5 (UniProt Q9HAV4)
inactive: [1] 0.025 | [2] -0.184 | [3] -0.014 | [4] -0.002 | [5] -0.019 | [6] 0.021 | [7] 0.012 | [8] -0.004 | [9] 0 | [10] 0.013 | [11] -0.042 | [12] 0 | [13] -0.085 | [14] -0.041 | [15] -0.017 | [16] -0.14 | [17] 0.013 | [18] -0.008 | [19] -0.006 | [20] 0.049

ZFPL1 (UniProt O95159)
inactive: [1] 0.019 | [2] 0.078 | [3] -0.01 | [4] 0.066 | [5] -0.047 | [6] 0.046 | [7] -0.071 | [8] -0.07 | [9] 0.311 | [10] -0.043 | [11] -0.043 | [12] -0.096 | [13] -0.004 | [14] 0.115 | [15] 0.023 | [16] -0.06 | [17] 0.05 | [18] 0.002 | [19] 0.003 | [20] -0.001

YY1 (UniProt P25490)
inactive: [1] 0.037 | [2] -0.017 | [3] 0.001 | [4] 0.023 | [5] 0.03 | [6] 0 | [7] -0.032 | [8] 0.013 | [9] -0.035 | [10] 0.009 | [11] 0.008 | [12] 0.078 | [13] 0.071 | [14] 0.11 | [15] 0.016 | [16] -0.162 | [17] 0.043 | [18] 0.019 | [19] -0.006 | [20] -0.09

XPO4 (UniProt Q9C0E2)
inactive: [1] -0.013 | [2] -0.067 | [3] -0.014 | [4] -0.008 | [5] -0.037 | [6] 0.036 | [7] -0.116 | [8] -0.028 | [9] -0.012 | [10] -0.002 | [11] -0.028 | [12] -0.02 | [13] -0.034 | [14] -0.068 | [15] 0.017 | [16] -0.023 | [17] 0 | [18] 0.006 | [19] -0.033 | [20] 0.071

ZGPAT (UniProt Q8N5A5)
inactive: [1] -0.051 | [2] -0.133 | [3] -0.038 | [4] 0.106 | [5] 0.009 | [6] 0.12 | [7] 0.042 | [8] 0.022 | [9] 0.025 | [10] 0.009 | [11] 0.011 | [12] 0.065 | [13] -0.044 | [14] -0.049 | [15] -0.054 | [16] 0.008 | [17] 0.07 | [18] 0.051 | [19] 0 | [20] -0.028

4 consecutive entries out of the list so far, for reference:
ZFPL1 (UniProt O95159)
inactive: [1] 0.019 | [2] 0.078 | [3] -0.01 | [4] 0.066 | [5] -0.047 | [6] 0.046 | [7] -0.071 | [8] -0.07 | [9] 0.311 | [10] -0.043 | [11] -0.043 | [12] -0.096 | [13] -0.004 | [14] 0.115 | [15] 0.023 | [16] -0.06 | [17] 0.05 | [18] 0.002 | [19] 0.003 | [20] -0.001

YY1 (UniProt P25490)
inactive: [1] 0.037 | [2] -0.017 | [3] 0.001 | [4] 0.023 | [5] 0.03 | [6] 0 | [7] -0.032 | [8] 0.013 | [9] -0.035 | [10] 0.009 | [11] 0.008 | [12] 0.078 | [13] 0.071 | [14] 0.11 | [15] 0.016 | [16] -0.162 | [17] 0.043 | [18] 0.019 | [19] -0.006 | [20] -0.09

XPO4 (UniProt Q9C0E2)
inactive: [1] -0.013 | [2] -0.067 | [3] -0.014 | [4] -0.008 | [5] -0.037 | [6] 0.036 | [7] -0.116 | [8] -0.028 | [9] -0.012 | [10] -0.002 | [11] -0.028 | [12] -0.02 | [13] -0.034 | [14] -0.068 | [15] 0.017 | [16] -0.023 | [17] 0 | [18] 0.006 | [19] -0.033 | [20] 0.071

ZGPAT (UniProt Q8N5A5)
inactive: [1] -0.051 | [2] -0.133 | [3] -0.038 | [4] 0.106 | [5] 0.009 | [6] 0.12 | [7] 0.042 | [8] 0.022 | [9] 0.025 | [10] 0.009 | [11] 0.011 | [12] 0.065 | [13] -0.044 | [14] -0.049 | [15] -0.054 | [16] 0.008 | [17] 0.07 | [18] 0.051 | [19] 0 | [20] -0.028
